Test results taken from article PMC11449290.
These are yes or no findings as the source states them, for the method shown. For some assays here: In cells and extracts the contact can be indirect. Some results given as binding are weak or reduced against the parent protein; the word gives no strength. For some assays here: Sequences can lack the tags named with a protein.

T1: T20S proteasome β-subunit with C-terminal 6X-His tag (PsmB-6x-His), from the T20S-αΔN construct (Thermoplasma acidophilum) (UniProt P28061)
T1 sequence: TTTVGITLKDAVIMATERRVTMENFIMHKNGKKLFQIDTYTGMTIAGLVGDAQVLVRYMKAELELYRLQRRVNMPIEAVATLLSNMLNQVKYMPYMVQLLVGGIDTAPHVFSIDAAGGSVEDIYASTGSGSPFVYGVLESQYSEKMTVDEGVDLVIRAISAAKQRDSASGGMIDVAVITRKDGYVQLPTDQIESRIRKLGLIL


Legend:
[1] = target: T1, T20S proteasome β-subunit with C-terminal 6X-His tag (PsmB-6x-His), from the T20S-αΔN construct (Thermoplasma acidophilum); test: negative-stain transmission electron microscopy; T20S-αΔN purified from HEK293 cells (6x-His tag antibody pulldown), 1% uranyl acetate; 522 particles aligned and classified
[2] = target: T20S proteasome α-subunit lacking amino acids 2-11 (Δ2-11PsmA), from the T20S-αΔN construct (Thermoplasma acidophilum) (UniProt P25156); test: as above
[3] = target: T1, T20S proteasome β-subunit with C-terminal 6X-His tag (PsmB-6x-His), from the T20S-αΔN construct (Thermoplasma acidophilum); test: co-IP; His-tagged β-subunit immunoprecipitated with 6x-His tag mouse monoclonal antibody and protein A/G agarose from extract of transfected HEK293 cells, eluted with 3% ammonia; Western blotting
[4] = target: T1, T20S proteasome β-subunit with C-terminal 6X-His tag (PsmB-6x-His), from the T20S-αΔN construct (Thermoplasma acidophilum); test: pull-down; His-tagged β-subunit captured with HisPur Ni-NTA resin from extract of transfected HEK293 cells (20mM Tris/HCl pH 7.5, 100mM NaCl, 1.0% Triton X-100), eluted with 300mM imidazole; Western blotting

binding [1]	binding [2]	binding [3]	binding [4]	Molecule
binds	binds	binds	binds	T20S proteasome α-subunit lacking amino acids 2-11 (Δ2-11PsmA), from the T20S-αΔN construct (from UniProt P25156 4-233)
binds				T20S proteasome β-subunit with C-terminal 6X-His tag (PsmB-6x-His), from the T20S-αΔN construct (protein, UniProt P28061 9-211) TTTVGITLKDAVIMATERRVTMENFIMHKNGKKLFQIDTYTGMTIAGLVGDAQVLVRYMKAELELYRLQRRVNMPIEAVATLLSNMLNQVKYMPYMVQLLVGGIDTAPHVFSIDAAGGSVEDIYASTGSGSPFVYGVLESQYSEKMTVDEGVDLVIRAISAAKQRDSASGGMIDVAVITRKDGYVQLPTDQIESRIRKLGLIL
